No constants are given. Whether binding was seen depends on the method and setting. Binding can be weak; no strength is given.

In the assay the target is human insulin (heterodimer with three disulfide bonds) (human). As to the kind of experiment: RP-HPLC of single-turnover insulin reduction products; pre-reduced TRX sample incubated with 10 mg/mL insulin for 0-90 min, reaction stopped by alkylation and trifluoroacetic acid; covalent mixed-disulfide forms seen as shifted peaks; both purified.

B1: ORP-100 (C35S TRX; monocysteinic, chemically pre-reduced human thioredoxin-1) (enzyme, UniProt P10599 1-105)
chain: MVKQIESKTAFQEALDAAGDKLVVVDFSATWCGPSKMIKPFFHSLSEKYSNVIFLEVDVDDCQDVASECEVKCMPTFQFFKKGQKVGEFSGANKEKLEATINELV
Regarding B1, the binding result was “binds”.

The values are drawn from paper PMC12622487.
